The text below walks through data of PMC12808100, “The non-catalytic DNA polymerase ε subunit is an NPF motif recognition protein” (Nature Communications, 2025).

Sequences of proteins named here, by UniProt entry; tags and fusion partners are left off.
UniProt Q9HAW4: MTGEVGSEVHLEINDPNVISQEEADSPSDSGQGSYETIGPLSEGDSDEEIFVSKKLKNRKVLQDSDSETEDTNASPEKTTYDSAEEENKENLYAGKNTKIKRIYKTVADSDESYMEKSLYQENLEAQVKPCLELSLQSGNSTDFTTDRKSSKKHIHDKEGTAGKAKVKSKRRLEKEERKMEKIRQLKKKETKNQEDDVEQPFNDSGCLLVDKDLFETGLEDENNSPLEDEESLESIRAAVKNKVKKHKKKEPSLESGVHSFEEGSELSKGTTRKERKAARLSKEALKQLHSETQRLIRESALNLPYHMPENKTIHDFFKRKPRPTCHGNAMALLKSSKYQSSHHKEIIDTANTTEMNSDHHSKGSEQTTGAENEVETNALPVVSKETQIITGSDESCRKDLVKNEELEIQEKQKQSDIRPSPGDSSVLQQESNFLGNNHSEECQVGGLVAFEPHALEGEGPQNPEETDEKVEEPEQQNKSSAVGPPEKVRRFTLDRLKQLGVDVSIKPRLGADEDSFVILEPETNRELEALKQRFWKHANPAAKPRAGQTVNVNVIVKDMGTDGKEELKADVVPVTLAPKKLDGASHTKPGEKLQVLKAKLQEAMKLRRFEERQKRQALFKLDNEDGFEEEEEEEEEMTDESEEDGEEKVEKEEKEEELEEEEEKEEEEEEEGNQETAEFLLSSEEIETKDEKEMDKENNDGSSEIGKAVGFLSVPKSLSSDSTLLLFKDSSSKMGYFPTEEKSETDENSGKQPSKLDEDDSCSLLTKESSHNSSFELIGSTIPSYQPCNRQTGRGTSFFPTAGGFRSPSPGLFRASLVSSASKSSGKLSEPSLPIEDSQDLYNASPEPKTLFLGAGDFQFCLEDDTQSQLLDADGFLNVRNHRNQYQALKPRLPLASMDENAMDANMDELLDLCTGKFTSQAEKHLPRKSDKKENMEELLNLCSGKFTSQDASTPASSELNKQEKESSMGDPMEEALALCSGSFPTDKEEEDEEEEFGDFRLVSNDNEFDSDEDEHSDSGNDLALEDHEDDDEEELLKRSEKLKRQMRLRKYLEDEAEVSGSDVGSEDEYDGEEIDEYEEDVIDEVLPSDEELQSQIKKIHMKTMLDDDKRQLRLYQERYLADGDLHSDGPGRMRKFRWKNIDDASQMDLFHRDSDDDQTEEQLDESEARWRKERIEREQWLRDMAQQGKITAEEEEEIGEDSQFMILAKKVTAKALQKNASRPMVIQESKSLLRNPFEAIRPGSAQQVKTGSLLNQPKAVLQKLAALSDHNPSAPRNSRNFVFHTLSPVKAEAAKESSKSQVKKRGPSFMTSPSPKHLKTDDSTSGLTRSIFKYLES
UniProt Q9BVC3: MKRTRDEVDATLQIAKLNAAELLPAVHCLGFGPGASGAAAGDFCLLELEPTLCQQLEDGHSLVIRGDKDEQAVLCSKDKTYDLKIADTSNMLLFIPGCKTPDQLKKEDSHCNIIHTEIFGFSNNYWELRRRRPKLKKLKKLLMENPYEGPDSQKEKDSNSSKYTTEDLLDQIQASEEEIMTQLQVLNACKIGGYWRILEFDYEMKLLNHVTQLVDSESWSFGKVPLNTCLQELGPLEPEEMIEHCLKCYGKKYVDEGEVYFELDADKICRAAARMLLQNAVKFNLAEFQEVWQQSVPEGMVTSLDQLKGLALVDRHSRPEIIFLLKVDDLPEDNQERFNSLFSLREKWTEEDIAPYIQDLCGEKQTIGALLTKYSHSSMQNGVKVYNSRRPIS
UniProt Q86U70: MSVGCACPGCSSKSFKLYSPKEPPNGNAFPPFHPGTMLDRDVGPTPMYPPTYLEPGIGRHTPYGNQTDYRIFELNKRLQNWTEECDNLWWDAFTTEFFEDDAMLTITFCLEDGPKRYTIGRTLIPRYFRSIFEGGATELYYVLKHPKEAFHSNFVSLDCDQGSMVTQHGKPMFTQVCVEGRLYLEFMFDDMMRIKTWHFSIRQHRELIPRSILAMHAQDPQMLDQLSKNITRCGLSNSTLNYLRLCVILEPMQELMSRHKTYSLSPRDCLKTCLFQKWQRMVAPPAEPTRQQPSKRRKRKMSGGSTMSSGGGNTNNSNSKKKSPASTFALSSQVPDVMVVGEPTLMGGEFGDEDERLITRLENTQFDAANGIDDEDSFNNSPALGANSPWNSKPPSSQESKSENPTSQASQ
UniProt Q9UJU2: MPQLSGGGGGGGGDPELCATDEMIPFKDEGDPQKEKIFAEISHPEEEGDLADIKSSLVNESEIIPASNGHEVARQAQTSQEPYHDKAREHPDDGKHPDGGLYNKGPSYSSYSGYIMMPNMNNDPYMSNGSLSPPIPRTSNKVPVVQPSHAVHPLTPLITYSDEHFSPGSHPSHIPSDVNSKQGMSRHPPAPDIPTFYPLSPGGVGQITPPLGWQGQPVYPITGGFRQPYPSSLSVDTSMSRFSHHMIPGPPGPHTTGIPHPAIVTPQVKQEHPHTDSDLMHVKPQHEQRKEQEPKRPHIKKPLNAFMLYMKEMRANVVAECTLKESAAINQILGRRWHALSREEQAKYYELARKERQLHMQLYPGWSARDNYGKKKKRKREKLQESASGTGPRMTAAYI
UniProt P09884: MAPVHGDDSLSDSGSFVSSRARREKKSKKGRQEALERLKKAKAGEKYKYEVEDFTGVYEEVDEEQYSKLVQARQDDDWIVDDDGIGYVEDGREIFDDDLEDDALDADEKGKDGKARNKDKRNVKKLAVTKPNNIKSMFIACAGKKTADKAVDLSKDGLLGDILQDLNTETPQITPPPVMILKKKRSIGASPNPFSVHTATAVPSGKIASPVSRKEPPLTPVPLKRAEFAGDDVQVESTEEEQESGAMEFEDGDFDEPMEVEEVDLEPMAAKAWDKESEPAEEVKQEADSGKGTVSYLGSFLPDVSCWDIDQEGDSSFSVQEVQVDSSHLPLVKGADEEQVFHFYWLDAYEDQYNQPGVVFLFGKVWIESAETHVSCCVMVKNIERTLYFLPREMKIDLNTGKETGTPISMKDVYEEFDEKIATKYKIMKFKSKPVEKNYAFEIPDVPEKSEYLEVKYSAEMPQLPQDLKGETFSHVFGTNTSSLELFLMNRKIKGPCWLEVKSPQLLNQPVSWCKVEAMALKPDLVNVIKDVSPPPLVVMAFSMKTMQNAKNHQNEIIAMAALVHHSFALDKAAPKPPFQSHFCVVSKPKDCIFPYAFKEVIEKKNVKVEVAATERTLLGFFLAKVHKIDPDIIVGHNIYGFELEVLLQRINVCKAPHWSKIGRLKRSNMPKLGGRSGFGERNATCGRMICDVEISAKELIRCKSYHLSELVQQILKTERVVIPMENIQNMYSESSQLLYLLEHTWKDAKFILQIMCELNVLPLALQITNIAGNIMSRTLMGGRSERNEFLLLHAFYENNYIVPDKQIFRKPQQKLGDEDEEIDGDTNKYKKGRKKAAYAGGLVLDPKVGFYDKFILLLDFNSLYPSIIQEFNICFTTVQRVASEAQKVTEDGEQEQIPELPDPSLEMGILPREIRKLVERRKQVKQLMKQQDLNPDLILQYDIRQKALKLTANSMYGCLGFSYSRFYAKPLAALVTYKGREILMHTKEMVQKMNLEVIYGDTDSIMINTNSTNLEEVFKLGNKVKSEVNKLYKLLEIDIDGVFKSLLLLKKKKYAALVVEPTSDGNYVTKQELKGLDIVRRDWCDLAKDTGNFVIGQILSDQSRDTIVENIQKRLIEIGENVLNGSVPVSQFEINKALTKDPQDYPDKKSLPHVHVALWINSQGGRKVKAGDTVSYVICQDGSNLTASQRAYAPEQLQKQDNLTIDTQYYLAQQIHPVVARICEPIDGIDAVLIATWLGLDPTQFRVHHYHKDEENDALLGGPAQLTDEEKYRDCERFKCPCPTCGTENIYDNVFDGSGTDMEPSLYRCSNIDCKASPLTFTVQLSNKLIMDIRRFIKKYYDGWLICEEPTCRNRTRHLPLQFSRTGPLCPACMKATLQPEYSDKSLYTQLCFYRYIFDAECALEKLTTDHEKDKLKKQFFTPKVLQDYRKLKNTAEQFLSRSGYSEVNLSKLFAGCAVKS
UniProt Q9NRF9: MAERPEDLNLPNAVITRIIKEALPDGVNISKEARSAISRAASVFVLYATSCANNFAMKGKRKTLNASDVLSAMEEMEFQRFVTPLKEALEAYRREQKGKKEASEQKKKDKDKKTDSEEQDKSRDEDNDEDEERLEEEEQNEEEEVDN
UniProt O43426: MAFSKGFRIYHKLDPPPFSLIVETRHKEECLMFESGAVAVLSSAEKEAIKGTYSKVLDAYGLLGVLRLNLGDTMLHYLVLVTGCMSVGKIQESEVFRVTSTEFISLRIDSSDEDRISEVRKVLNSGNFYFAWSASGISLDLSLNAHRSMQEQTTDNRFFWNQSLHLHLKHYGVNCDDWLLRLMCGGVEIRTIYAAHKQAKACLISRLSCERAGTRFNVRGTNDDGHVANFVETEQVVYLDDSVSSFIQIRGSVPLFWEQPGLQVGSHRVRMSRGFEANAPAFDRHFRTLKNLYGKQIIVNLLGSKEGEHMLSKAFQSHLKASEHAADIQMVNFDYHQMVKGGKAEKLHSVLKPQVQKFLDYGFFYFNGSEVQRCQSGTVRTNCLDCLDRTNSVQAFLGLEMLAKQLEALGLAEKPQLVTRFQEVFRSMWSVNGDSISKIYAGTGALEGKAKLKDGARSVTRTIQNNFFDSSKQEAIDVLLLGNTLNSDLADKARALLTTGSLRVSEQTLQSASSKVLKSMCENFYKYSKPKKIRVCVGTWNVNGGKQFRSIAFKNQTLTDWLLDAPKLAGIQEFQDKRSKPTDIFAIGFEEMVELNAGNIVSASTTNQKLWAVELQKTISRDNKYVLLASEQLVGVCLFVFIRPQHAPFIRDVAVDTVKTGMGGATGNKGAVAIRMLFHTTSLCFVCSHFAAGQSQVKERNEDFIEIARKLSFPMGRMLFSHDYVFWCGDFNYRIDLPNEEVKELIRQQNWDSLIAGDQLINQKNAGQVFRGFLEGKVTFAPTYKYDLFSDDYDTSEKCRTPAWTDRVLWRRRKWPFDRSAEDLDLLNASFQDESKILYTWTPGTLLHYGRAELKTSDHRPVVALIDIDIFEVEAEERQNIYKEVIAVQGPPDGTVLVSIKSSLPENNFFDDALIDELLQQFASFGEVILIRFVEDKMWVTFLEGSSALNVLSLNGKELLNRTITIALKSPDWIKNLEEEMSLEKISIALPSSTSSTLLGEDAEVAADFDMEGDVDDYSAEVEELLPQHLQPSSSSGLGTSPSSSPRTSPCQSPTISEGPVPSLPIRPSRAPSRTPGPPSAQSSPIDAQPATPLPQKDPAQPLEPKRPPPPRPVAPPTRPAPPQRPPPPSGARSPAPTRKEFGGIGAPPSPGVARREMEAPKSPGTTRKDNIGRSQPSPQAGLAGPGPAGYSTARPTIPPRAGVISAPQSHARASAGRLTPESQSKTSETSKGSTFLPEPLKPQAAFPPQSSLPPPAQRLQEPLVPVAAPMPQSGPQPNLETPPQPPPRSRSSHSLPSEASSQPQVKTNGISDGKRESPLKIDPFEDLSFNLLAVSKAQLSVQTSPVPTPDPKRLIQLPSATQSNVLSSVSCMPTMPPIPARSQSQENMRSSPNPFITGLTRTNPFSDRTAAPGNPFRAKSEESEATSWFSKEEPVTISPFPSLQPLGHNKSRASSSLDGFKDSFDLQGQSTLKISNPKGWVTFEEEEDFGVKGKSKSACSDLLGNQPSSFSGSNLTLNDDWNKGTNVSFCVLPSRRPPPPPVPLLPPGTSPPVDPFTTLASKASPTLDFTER
UniProt Q9UQ84: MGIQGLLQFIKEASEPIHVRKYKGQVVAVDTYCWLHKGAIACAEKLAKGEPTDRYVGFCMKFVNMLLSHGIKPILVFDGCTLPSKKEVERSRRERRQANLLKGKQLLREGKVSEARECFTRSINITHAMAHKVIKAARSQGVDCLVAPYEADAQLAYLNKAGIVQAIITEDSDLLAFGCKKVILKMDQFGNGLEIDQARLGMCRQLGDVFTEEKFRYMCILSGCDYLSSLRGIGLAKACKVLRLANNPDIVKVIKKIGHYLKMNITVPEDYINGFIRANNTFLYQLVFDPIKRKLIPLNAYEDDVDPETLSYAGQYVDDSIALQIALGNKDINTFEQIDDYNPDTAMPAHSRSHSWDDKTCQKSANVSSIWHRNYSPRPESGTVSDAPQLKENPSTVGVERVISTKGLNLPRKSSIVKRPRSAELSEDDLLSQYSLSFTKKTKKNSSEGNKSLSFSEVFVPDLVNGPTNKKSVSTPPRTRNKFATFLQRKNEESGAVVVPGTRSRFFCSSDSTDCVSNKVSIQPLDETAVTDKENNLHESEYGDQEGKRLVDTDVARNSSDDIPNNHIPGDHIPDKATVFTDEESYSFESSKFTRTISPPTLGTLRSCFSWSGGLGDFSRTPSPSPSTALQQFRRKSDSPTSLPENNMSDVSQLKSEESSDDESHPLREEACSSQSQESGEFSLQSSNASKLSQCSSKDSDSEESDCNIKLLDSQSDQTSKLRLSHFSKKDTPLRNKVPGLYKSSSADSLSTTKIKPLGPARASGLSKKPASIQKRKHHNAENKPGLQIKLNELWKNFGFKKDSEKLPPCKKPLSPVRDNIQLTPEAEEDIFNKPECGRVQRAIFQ

These are yes or no findings as the source states them, for the method shown. In cells and extracts the contact can be indirect. Here binding means that the protein was enriched with, or labelled near, the bait; the list need not be complete. For part of these data: No binding means not detected with the bait. Where a sequence is shown, tags or fusion partners need not be part of it.

The target in assay [1] is C-terminally MAC3-tagged POLE2, wild type (human) (UniProt P56282). The assay is described as follows: proximity labelling; C-terminally MAC3-tagged (ultraID) POLE2 variants in Flp-In T-REx 293 cells, tetracycline 24 h, 50 μM biotin 3 h; Strep-Tactin purification, mass spectrometry, SAINTexpress against GFP control.
The target of assay [2] is His6-AviTag-MBP-TEV-POLE2 (human) (UniProt P56282). The assay is described as follows: native holdup (nHU) with mass spectrometry; single point; biotinylated His6-avi-MBP-POLE2 bait on streptavidin resin at 26 μM, His6-avi-MBP as control; Jurkat extract, 4 °C, 2 h; label-free MS of the supernatant; apparent; only the target purified.
The target of assay [3] is C-terminally MAC3-tagged POLE2 E520A (human) (UniProt P56282). The assay is described as follows: proximity labelling; C-terminally MAC3-tagged (ultraID) POLE2 variants in Flp-In T-REx 293 cells, tetracycline 24 h, 50 μM biotin 3 h; Strep-Tactin purification, mass spectrometry, SAINTexpress against GFP control.
The target in assay [4] is C-terminally MAC3-tagged POLE2 S522A (human) (UniProt P56282). The description is as above.
The target in assay [5] is C-terminally MAC3-tagged POLE2 Y311F (human) (UniProt P56282). The assay is described as above.

For the substance “Claspin, endogenous (from UniProt Q9HAW4 1-1339)”, in assay [1], the binding entry is given as “binds”.

Regarding “DSCC1, endogenous (from UniProt Q9BVC3 1-393)”, the binding entry in assay [1] is reported as “binds”.

Consider “LDB1, endogenous (from UniProt Q86U70 1-411)”, for which the binding result in assay [2] is “binds”.

As for “LEF1, endogenous (from UniProt Q9UJU2 1-399)”, in assay [2], the binding entry was “binds”.

For the substance “POLA1, endogenous (from UniProt P09884 1-1462)”, the binding entry in assay [1] is on record as “binds”.

As to “POLE3, endogenous (from UniProt Q9NRF9 1-147)”, in assay [1], the binding entry was “binds”.

For “SYNJ1, endogenous full length (from UniProt O43426 1-1573)”, in assay [2], the binding result is “binds”.

“exonuclease EXO1, endogenous (from UniProt Q9UQ84 1-846)”: the binding entry is listed as “binds” in assay [2]; “no binding” in assay [3]; “binds” in assay [1]; “no binding” in assay [4]; “no binding” in assay [5].
